Assay results published in PMC12796321.

Chains of the proteins cited; added tags and fusions are not shown. A line that says so, or that is headed by a name, gives the form on record, which may keep a tag or linker.
POLE1 (Pol epsilon catalytic subunit) + POLE2 + POLE3 + POLE4, one chain, as listed by the source, chain 4 of 4: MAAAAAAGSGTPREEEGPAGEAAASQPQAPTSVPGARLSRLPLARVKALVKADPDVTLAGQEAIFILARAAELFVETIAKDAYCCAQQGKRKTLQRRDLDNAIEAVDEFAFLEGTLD

What was measured:
[1] = system: POLE1 (Pol epsilon catalytic subunit) + POLE2; assay: EMSA; conditions: EMSA: 30 nM DNA, 30-120 nM protein, protein dilution buffer 25 mM Hepes pH 7.5, 100 mM NaCl, 10% glycerol, 0.5 mM EDTA, 1 mM DTT, 0.01% NP-40, recombinant protein, protein details: N-terminal streptavidin tag, label: 5' 6FAM on strand 1
[2] = system: POLE1 (Pol epsilon catalytic subunit) + POLE2 + POLE3 + POLE4; assay: EMSA; conditions: EMSA: 30 nM DNA, 30-120 nM protein, protein dilution buffer 25 mM Hepes pH 7.5, 100 mM NaCl, 10% glycerol, 0.5 mM EDTA, 1 mM DTT, 0.01% NP-40, recombinant protein, protein details: N-terminal streptavidin tag

Sequence	binding result ([1]; without POLE3-POLE4, almost completely unable to bind)	binding result ([2]; label: 5' 6FAM on strand 1)	binding result ([1]; without POLE3-POLE4, double shifted band)	binding result ([2]; label: 5' 6FAM, single-stranded DNA)
AGCTACCATGCCTGCACGAATTAAGCAATTCGTAATCATGGTCATAGCT (double strand) [EMSA dsDNA 49 bp]	binds more weakly	binds		
AGCTACCATGCCTGCACGAATTAAGCAATTCGTAATCATGGTCATAGCT / CTACAGTTCGTCAGGATTCC / AGCTATGACCATGATTACGAATTGCTTGGAATCCTGACGAACTGTAG [EMSA leading strand fork]		binds	binds more weakly	
AGCTACCATGCCTGCACGAATTAAGCAATTCGTAATCATGGTCATAGCT [EMSA ssDNA 49-mer]				binds

For at least one entry, the source does not settle the construct or the ends of the probe. For some assays here: Weaker means in comparison with the reference protein, sequence or condition of that experiment. For some assays here: At least one verdict rests on a figure or table, not on a statement of the authors.
